# Results are given in words; binding and its absence hold for the method and conditions named. Some binding calls cover weakened binding; strength is not graded here.
# Sequences of proteins named here, by UniProt entry; tags and fusion partners are left off. Residues count along the entry.
# UniProt D0N6E1, residues 21-162: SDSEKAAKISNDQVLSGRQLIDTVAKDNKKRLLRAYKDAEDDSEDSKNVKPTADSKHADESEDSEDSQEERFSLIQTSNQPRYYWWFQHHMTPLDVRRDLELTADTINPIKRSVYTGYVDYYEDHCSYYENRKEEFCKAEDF
# UniProt D0NB60, residues 25-165: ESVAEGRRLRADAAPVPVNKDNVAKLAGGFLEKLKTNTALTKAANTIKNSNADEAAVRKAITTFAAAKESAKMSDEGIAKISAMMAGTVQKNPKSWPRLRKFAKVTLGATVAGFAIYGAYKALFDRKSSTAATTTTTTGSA
# UniProt D0N4E0, residues 23-170: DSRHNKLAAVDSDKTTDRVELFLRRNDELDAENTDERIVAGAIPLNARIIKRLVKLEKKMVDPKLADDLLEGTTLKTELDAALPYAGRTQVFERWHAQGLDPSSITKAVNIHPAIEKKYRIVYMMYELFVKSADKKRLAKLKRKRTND
# UniProt D0NPN8, residues 22-147: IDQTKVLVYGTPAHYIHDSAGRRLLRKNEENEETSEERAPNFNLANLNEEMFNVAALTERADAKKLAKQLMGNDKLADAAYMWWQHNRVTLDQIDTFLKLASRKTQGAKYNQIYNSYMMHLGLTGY
# UniProt D0MZL5, residues 25-144: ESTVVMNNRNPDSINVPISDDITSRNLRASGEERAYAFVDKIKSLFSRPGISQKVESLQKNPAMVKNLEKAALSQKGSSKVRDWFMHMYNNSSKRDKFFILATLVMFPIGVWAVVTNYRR
# UniProt D0N8M5, residues 18-170: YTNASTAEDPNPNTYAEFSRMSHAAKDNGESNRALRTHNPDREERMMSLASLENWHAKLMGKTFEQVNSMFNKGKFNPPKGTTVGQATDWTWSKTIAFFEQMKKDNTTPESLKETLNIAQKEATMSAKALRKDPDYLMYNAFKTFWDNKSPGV
# UniProt D0P3S7, residues 25-152: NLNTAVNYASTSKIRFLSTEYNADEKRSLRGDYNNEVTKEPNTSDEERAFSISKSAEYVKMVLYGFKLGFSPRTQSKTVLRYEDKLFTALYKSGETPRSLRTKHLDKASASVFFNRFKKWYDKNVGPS
# UniProt D0N4K2, residues 20-254: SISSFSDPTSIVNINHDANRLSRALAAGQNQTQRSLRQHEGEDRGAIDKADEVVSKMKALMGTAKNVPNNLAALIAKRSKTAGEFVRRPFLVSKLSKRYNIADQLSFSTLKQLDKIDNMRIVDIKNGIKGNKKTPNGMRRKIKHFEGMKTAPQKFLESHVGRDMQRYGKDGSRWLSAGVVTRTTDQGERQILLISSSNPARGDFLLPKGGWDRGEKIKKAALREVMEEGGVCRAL
# UniProt D0N118, residues 24-240: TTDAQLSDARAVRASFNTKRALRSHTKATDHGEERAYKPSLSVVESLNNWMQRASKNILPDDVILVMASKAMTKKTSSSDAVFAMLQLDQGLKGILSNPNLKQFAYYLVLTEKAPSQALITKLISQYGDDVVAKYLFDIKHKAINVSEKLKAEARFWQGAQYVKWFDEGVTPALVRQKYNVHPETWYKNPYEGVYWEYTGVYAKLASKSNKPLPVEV
# UniProt D0NQC3, residues 20-213: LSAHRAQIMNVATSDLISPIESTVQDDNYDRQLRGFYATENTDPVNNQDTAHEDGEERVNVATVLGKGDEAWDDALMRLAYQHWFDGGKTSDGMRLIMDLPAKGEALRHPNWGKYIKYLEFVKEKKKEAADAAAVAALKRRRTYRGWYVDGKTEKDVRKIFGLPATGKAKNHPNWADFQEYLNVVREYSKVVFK
# UniProt D0NVS7, residues 34-349: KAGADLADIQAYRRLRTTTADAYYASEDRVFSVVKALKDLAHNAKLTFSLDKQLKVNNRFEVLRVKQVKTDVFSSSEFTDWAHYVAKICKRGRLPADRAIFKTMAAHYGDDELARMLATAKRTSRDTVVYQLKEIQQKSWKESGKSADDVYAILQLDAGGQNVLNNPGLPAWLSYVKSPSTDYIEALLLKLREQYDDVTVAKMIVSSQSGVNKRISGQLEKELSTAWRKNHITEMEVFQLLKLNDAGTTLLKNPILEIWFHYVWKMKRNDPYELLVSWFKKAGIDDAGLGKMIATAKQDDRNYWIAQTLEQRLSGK
# UniProt P14713: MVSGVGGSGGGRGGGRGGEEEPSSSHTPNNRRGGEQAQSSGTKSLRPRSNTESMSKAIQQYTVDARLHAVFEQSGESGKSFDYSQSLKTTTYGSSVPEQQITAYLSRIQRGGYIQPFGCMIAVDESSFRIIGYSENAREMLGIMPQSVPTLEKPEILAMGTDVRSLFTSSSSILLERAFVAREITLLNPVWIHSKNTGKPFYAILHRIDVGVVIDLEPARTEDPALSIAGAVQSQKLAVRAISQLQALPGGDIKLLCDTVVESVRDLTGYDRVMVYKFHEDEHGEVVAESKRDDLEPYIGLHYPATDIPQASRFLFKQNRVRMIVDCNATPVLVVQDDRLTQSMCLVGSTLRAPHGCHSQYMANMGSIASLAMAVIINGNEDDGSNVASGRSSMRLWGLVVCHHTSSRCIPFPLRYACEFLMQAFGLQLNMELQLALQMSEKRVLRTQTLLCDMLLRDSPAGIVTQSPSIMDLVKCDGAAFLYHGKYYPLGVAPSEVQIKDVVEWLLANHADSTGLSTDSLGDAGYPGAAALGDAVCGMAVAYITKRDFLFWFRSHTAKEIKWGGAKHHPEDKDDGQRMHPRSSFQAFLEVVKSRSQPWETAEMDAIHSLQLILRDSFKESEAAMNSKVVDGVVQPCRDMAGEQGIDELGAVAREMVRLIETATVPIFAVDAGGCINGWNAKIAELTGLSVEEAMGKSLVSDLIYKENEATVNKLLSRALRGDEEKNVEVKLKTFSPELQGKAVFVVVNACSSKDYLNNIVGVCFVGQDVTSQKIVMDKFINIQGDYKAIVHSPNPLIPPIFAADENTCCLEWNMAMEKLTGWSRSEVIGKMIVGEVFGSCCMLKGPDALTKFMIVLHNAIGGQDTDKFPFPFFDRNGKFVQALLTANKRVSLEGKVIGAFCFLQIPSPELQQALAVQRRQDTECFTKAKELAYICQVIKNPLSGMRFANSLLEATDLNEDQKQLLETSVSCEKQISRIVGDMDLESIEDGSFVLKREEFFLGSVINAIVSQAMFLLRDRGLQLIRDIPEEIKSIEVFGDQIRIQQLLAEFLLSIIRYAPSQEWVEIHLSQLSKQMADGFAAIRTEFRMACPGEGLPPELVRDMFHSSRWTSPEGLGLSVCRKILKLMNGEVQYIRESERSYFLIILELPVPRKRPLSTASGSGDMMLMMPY
# UniProt Q9LKG8: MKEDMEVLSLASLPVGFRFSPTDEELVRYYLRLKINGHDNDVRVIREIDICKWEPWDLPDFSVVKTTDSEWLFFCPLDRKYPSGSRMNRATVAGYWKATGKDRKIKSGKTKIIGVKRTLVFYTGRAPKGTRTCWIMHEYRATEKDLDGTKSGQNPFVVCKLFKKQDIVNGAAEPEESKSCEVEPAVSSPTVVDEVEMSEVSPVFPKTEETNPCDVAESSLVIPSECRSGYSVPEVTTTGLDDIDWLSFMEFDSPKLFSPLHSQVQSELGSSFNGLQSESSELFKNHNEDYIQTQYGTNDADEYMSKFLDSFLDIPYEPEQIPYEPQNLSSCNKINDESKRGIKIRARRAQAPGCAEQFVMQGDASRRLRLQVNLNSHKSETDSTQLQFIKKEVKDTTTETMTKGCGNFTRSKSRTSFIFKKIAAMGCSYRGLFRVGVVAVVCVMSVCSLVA
# UniProt F4JL11: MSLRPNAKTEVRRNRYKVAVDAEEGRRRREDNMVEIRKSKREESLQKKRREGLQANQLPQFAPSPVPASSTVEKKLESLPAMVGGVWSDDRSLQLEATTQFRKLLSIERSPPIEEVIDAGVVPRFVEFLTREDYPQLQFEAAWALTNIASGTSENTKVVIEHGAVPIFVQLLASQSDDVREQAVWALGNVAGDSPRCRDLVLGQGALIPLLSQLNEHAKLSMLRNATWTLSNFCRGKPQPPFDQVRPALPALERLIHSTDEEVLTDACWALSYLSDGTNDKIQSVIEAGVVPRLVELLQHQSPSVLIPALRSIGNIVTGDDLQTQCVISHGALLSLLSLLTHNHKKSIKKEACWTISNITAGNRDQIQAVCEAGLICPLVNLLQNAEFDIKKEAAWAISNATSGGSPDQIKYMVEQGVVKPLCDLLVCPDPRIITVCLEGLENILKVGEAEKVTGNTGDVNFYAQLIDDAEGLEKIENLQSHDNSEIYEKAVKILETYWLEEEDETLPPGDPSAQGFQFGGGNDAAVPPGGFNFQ
# UniProt Q96321: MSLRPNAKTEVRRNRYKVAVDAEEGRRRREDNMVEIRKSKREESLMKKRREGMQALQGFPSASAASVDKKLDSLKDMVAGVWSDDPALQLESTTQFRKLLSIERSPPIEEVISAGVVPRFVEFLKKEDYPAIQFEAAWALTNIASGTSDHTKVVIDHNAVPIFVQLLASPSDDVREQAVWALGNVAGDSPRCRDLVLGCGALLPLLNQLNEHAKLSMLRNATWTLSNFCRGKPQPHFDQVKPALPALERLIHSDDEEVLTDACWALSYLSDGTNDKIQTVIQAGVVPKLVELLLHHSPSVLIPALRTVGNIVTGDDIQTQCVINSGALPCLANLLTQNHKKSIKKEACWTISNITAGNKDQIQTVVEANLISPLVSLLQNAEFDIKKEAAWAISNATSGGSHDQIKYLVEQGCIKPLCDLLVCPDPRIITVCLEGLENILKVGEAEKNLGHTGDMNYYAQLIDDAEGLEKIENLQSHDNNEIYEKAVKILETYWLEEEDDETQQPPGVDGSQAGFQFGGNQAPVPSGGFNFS
# UniProt P47998: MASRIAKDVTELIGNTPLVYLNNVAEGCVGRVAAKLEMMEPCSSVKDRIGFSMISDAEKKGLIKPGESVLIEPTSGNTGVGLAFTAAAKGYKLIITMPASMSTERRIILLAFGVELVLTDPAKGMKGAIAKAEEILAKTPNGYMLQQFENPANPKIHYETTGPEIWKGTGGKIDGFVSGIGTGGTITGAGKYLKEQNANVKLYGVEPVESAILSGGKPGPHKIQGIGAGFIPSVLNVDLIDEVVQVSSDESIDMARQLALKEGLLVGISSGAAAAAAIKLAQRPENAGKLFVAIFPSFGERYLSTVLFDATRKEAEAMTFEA
# UniProt Q9XIC5: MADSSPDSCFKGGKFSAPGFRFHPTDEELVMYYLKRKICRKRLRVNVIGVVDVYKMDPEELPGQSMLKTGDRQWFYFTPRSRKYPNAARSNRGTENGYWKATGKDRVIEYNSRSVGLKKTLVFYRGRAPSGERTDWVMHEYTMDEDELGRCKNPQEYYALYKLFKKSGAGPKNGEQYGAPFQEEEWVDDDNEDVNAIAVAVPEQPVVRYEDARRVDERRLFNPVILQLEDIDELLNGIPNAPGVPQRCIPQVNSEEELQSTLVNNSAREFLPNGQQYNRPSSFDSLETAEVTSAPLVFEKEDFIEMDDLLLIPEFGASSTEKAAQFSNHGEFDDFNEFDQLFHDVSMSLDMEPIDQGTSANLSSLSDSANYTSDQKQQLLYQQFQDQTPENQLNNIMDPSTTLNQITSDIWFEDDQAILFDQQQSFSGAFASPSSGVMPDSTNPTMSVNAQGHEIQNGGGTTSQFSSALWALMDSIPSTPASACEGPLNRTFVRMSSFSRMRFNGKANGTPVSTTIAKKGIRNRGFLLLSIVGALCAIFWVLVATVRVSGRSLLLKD
# B1: AT5G28770, bZIP protein BZO2H3 (protein, UniProt B9DGI8 1-314)
# chain: MEKVFSDEEISGNHHWSVNGMTSLNRSASEWAFNRFIQESSAAADDGESTTACGVSVSSPPNVPVDSEEYRAFLKSKLNLACAAVAMKRGTFIKPQDTSGRSDNGGANESEQASLASSKATPMMSSAITSGSELSGDEEEADGETNMNPTNVKRVKRMLSNRESARRSRRRKQAHLSELETQVSQLRVENSKLMKGLTDVTQTFNDASVENRVLKANIETLRAKVKMAEETVKRLTGFNPMFHNMPQIVSTVSLPSETSNSPDTTSSQVTTPEIISSGNKGKALIGCKMNRTASMRRVESLEHLQKRIRSVGDQ
# B2: AT3G10190, AtCML36, calmodulin-like 36 (protein, UniProt Q9SS31 1-209)
# chain: MKLAKLIPKRFFIRSKDRSTVSKSPTAFSFGSASSSSGQDCKNSGGDGGGGSVTPTSILPEVPSPYSYVEILQAFKLIDRDNDGAVSRHDLESLLSRLGPDPLTEEEINVMLKEVDCDGDGTIRLEELASRVVSLDPARDSTELKETFEFFDADRDGLISADELLRVFSTIGDERCTLDDCKRMIADVDEDGDGFVCFTEFSRMMDLQR
# B3: AT4G27060, AtTORTIFOLIA1, microtubule-associated protein (protein, UniProt Q9T041 1-864)
# chain: MSTPTTSGSAAKPTRPARSSSLATRSCSNSGSLTSFQAMVELKQKILTSISKLADRDTYQIAVEDLEKTIQSLTPETLPMFLNCLYDSCSDPKPAVKKECLHLLSYVCSLHCDSTAAHLTKIIAQIVKRLKDSDSGVRDACRDTIGALSGIYLKGKEEGTNTGSASLAVGLFVKPLFEAMGEQNKVVQSGASMCMARMVESAASPPVTSFQKLCPRICKLLSNSSFLAKASLLPVVSSLSQVGAIAPQSLESLLESIHDCLGSTDWVTRKAAAETLTALASHSSGLIKEKTDSTITVLETCRFDKIKPVRESVTEALQLWKKISGKYVDGASDDSKLSASEQLGSEKNGEKRSNLADLMKKEASDGSTLSPDSASKGKGCFPEKAVGLLKKKAPVLSDKDFNPEFFQRLERRQSVEVVVPRRCKNNDEEESGLDDLNAMGSSNRLKNTQADDKQVKGRFDGNGSQARTSGDDKAGVVNGKETPGHHAPVSNTDNQSEGSFTSNRGNWSAIQRQLLQLERQQTNLMNMLQEFIGGSHDSMVTLEGRVRGLERIVEDMARDLSISSGRRANLTAGFGKYNSFANYPTGKYNGRAPGERGSQTDGAMRGRMWNSDMADDWFIPPHAASRNGQAGPRRSPRSEQYENEHMGNGRRGWDNKASGTIRFGEGPSARSVWQASKDEATLEAIRVAGEDGAVPRPTRVAVAPEAEAMGDDDNEGQERDPIWVSWSNAMHSLRVGDIDAAYAEVLCAGDQHLVIKLMDKTGPSLDQMSNEIANEALNFISQFLLDHSLYDICLSWSQQLLELVLQDGADTFGVPMELKTEILYNLQDACSTMDPPEDWEGPAPEQLVVQLASVWEIDLQQFDK
# B4: AT3G58040, RING finger domain protein (protein, UniProt Q9M2P4 1-308)
# chain: MAPGGSALKEVMESNSTGMDYEVKTAKVEVNNNKPTKPGSAGIGKYGIHSNNGVYELLECPVCTNLMYPPIHQCPNGHTLCSNCKLRVQNTCPTCRYELGNIRCLALEKVAESLEVPCRYQNLGCHDIFPYYSKLKHEQHCRFRPYTCPYAGSECSVTGDIPTLVVHLKDDHKVDMHDGCTFNHRYVKSNPHEVENATWMLTVFNCFGRQFCLHFEAFQLGMAPVYMAFLRFMGDENEAKKFSYSLEVGAHGRKLTWQGIPRSIRDSHRKVRDSQDGLIIPRNLALYFSGGDRQELKLRVTGRIWKEE
# B5: AT5G24660, AtLSU2, response to low sulfur 2 (protein, UniProt Q9FIR9 1-94)
# chain: MGKGGNYVTVAASEVDELRRKNGEMEKAVEEMKKEMLQLWRRTQVAEEAEERLCSQLAELEAESLDQARDYHSRIIFLMNELSRLSSDSASASP
# B6: AT1G14000, AtVIK, VH1-interacting kinase (protein, UniProt Q9XI87 1-438)
# chain: MSSDSPAAGDGGEQAAAGTSVPSPSYDKQKEKARVSRTSLILWHAHQNDAAAVRKLLEEDPTLVHARDYDKRTPLHVASLHGWIDVVKCLLEFGADVNAQDRWKNTPLADAEGARKQKMIELLKSHGGLSYGQNGSHFEPKPVPPPIPKKCDWEIEPAELDFSNAAMIGKGSFGEIVKAYWRGTPVAVKRILPSLSDDRLVIQDFRHEVDLLVKLRHPNIVQFLGAVTERKPLMLITEYLRGGDLHQYLKEKGGLTPTTAVNFALDIARGMTYLHNEPNVIIHRDLKPRNVLLVNSSADHLKVGDFGLSKLIKVQNSHDVYKMTGETGSYRYMAPEVFKHRRYDKKVDVFSFAMILYEMLEGEPPFANHEPYEAAKHVSDGHRPTFRSKGCTPDLRELIVKCWDADMNQRPSFLDILKRLEKIKETLPSDHHWGLFTS
# Assays:
# Test in all cases: two-hybrid
# [1] = molecular target: Pi06099 (Phytophthora infestans) (UniProt D0N6E1)
# [2] = molecular target: Pi09218 (Phytophthora infestans) (UniProt D0NB60)
# [3] = molecular target: Pi22798 (Phytophthora infestans) (UniProt D0N4E0)
# [4] = molecular target: Pi14371 (Phytophthora infestans) (UniProt D0NPN8)
# [5] = molecular target: Pi03192 (Phytophthora infestans) (UniProt D0MZL5)
# [6] = molecular target: Pi07555 (Phytophthora infestans) (UniProt D0N8M5)
# [7] = molecular target: Pi21388 (Phytophthora infestans) (UniProt D0P3S7)
# [8] = molecular target: Pi06308 (Phytophthora infestans) (UniProt D0N4K2)
# [9] = molecular target: Pi04339 (Phytophthora infestans) (UniProt D0N118)
# [10] = molecular target: Pi15287 (Phytophthora infestans) (UniProt D0NQC3)
# [11] = molecular target: Pi17316 (Phytophthora infestans) (UniProt D0NVS7)
molecule,measurement,setting,value
FL AtPhyB (from UniProt P14713 1-1172),binding,[1],binds
"AT5G24590, AtTIP, TCV-interacting protein, AtNAC91 (from UniProt Q9LKG8 1-451)",binding,[2],no binding
"AT4G16143, AtIMPA-2, importin α-isoform 2 (from UniProt F4JL11 1-535)",binding,[3],no binding
"AT3G06720, AtIMPA-1 importin-α (from UniProt Q96321 1-532)",binding,[3],no binding
"AT4G14880, O-acetylserine(thiol)lyase (from UniProt P47998 1-322)",binding,[4],no binding
"AT1G34190, NAC domain containing protein 17 (from UniProt Q9XIC5 1-557)",binding,[5],no binding
B1,binding,[6],no binding
B2,binding,[7],no binding
B3,binding,[8],no binding
B4,binding,[9],no binding
B5,binding,[10],no binding
B6,binding,[11],no binding
